Record: PubChem BioAssay AID1259308 (NCATS, 2017)
Shown is one part, drawn at random, of about 59,000 reagents. Over the whole deposit, about 1,510 (2.6%) got an active call. 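Calls use total luciferase alone and ignore viability, so some active siRNAs may act by altering cell number.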 Unmarked entries are inactive. Reagents against one gene are numbered here. Not all columns of the deposit are shown. No sequences are given here.

Test: 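Knock-downs that increase output of a recombinant reporter protein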 (primary screen)
Cells: human HEK293 embryonic kidney cells stably expressing firefly luciferase (HEK-CMV-Luc2-Hygro)
Reagent: single siRNA against human genes, 0.8 pmol siRNA per well
Timing: 72 h
Measured: 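Luciferase light (ONE-Glo) measured on one replicate plate set and viability (CellTiter-Glo) on the other, scaled to a negative control siRNA, with robust z-scores and luciferase per cell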
Direction: total luciferase, z-score and total luciferase, % of control: higher = more reporter protein produced; luciferase per cell, z-score: higher = more reporter output per viable cell
Rule for the call: 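An siRNA counts as active if its total luciferase robust z-score exceeds 3; genes with two or more such siRNAs out of three were retested with fresh siRNAs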
Meaning of the calls: active = raised luciferase; inactive = no rise

target	reagent no.	total luciferase, z-score	total luciferase, % of control	luciferase per cell, z-score
NGLY1 (GeneID 55768)	1	-1.57	50.6	-2.17
NGLY1 (GeneID 55768)	2	-1.99	42.3	-2.12
NGLY1 (GeneID 55768)	3	0.183	85.5	0.187
BDH1 (GeneID 622)	1	1.34	109	0.194
BDH1 (GeneID 622)	2	-0.454	72.9	-0.718
BDH1 (GeneID 622)	3	0.485	91.5	0.11
OR4N2 (GeneID 390429)	1	1.04	103	1.46
OR4N2 (GeneID 390429)	2	0.825	98.3	2.22
OR4N2 (GeneID 390429)	3	0.0628	83.1	0.227
DCP2 (GeneID 167227)	1	1.17	105	0.197
DCP2 (GeneID 167227)	2	-0.658	68.8	0.103
DCP2 (GeneID 167227)	3	3.36 (active)	149	1.62
CD207 (GeneID 50489)	1	0.517	92.2	1.02
CD207 (GeneID 50489)	2	0.0659	83.2	0.0948
CD207 (GeneID 50489)	3	-1.25	57	-1.32
TAAR5 (GeneID 9038)	1	1.53	112	0.883
TAAR5 (GeneID 9038)	2	0.536	92.5	-0.128
TAAR5 (GeneID 9038)	3	-0.281	76.3	0.577
IQCN (GeneID 80726)	1	2.83	138	1.79
IQCN (GeneID 80726)	2	1.08	103	0.241
IQCN (GeneID 80726)	3	-0.59	70.1	-1.04
ODR4 (GeneID 54953)	1	0.82	98.2	0.737
ODR4 (GeneID 54953)	2	-1.26	56.8	-1.12
ODR4 (GeneID 54953)	3	-0.566	70.6	-1.05
GET3 (GeneID 439)	1	2.56	133	2.12
GET3 (GeneID 439)	2	1.31	108	1.14
GET3 (GeneID 439)	3	-1.25	56.9	-1.64
ABCC4 (GeneID 10257)	1	-2.18	38.5	-2.82
ABCC4 (GeneID 10257)	2	0.317	88.2	0.674
ABCC4 (GeneID 10257)	3	-0.98	62.4	0.151
FLJ46838 (retired record) (GeneID 440865)	1	0.458	91	0.976
FLJ46838 (retired record) (GeneID 440865)	2	0.377	89.4	0.954
FLJ46838 (retired record) (GeneID 440865)	3	-0.75	67	-0.591
MOAP1 (GeneID 64112)	1	1.21	106	0.706
MOAP1 (GeneID 64112)	2	0.115	84.2	-0.537
MOAP1 (GeneID 64112)	3	-0.383	74.3	-0.266
SFR1 (GeneID 119392)	1	0.0814	83.5	1.38
SFR1 (GeneID 119392)	2	-0.0409	81.1	0.0984
SFR1 (GeneID 119392)	3	1.63	114	1.93
